Test [1] addresses T1, CED-3 caspase (C. elegans) (UniProt P42573).
T1 sequence: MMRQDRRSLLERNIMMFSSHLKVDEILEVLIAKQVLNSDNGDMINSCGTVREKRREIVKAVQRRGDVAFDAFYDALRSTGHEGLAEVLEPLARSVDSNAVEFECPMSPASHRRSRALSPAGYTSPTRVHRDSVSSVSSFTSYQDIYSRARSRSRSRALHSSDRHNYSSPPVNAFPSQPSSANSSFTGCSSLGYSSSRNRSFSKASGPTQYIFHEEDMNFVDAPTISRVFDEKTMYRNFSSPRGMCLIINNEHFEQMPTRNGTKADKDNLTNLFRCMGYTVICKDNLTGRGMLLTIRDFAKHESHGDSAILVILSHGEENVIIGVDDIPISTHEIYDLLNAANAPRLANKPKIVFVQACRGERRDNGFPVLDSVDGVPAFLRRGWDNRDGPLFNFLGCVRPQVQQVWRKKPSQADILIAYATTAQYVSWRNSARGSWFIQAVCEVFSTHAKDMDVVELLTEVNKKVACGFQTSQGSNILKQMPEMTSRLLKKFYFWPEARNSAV
The experiment in a line: two-hybrid; yeast strain MaV203; transformants streaked on SC-Trp-Leu-His or SC-Trp-Leu plates containing 30 mM 3 AT; growth on SC-Trp-Leu-His + 30 mM 3 AT indicates an interaction.

Test [2] deals with T2, CED-4 (Apaf-1-like protein) (C. elegans) (UniProt P30429).
T2 sequence: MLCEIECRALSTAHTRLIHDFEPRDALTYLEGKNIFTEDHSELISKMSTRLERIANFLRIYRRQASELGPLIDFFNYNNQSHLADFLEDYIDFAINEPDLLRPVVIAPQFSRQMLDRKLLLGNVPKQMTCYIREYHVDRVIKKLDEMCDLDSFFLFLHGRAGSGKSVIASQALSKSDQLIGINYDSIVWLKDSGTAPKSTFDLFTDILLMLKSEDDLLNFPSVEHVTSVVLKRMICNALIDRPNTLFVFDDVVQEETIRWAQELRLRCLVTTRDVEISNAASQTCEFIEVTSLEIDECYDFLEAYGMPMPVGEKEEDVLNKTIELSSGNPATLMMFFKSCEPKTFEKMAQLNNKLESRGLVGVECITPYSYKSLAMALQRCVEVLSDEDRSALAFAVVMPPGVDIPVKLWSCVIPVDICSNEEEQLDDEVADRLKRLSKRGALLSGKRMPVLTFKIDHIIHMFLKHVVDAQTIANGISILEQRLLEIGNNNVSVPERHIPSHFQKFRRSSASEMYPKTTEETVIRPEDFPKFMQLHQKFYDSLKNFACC
The description is as above.

No constants are given. Whether binding was seen depends on the method and setting.

We go through 2 molecules from article PMC3348885.

B1: C. elegans EIF-3.K (eukaryotic translation initiation factor 3 subunit k) (protein, UniProt Q9XUP3 1-240)
chain: MSFEKLQKELHEAIEGVNRYNPENVADLAACVQAMVNENKYDKDIVLTILKLYQLNPEKYDEAVVRQVLLKTLMVLPSSDFALAKCLIDTNRLGSQELRRIFDLGAVLESCNFAVFWKLVKGAYKPTTNPNEPFKVPGEVPKMIKPMVGFEDAVKHYACRVISVTFQKIEKKMLSRLLGGASDKEVTALAQSFGWEAKENGDVFFVANHEGTIKTRNIDEKIQFPHVADLLTSIQPPLTL
Consider B1, for which the binding entry in test [1] and in test [2] was “no binding” throughout.

B2: WH (Winged Helix) domain of C. elegans EIF-3.K (domain or fragment, UniProt Q9XUP3 148-208)
chain: VGFEDAVKHYACRVISVTFQKIEKKMLSRLLGGASDKEVTALAQSFGWEAKENGDVFFVAN
For the molecule B2, the binding entry in test [1] and in test [2] was “no binding” in each case.
